Assay results taken from US20230002494A1 (SANYOU BIOPHARMACEUTICALS, published 2023).
Results are given in words; binding and its absence hold for the method and conditions named. Tags and fused reporters may be left off the sequences shown.

Molecular target: B7-H3 (cell-expressed, Table 10)
Test: FACS, over-expressing cells

binding | Binder
no binding | NB22D-21-huVH2 (Fc fusion, not shown: a dimerising Fc or GST, Humanized form of NB22D-21; also called humanized antibody NB22D-21-huVH2; D21-Vh2) EVQLVESGGGLVQPGGSLRLSCAASRTDSNINGMHWYRQAPGKGREWVGTIFIDGNTIVTDSVKGRFTISRDNAKNTLYLQMNTLRAEDTAVYYCAADVSGYGRAWGQGTTVTVSS
no binding | NB22D-21-4 VHH-Fc chimeric antibody protein (Fc fusion, not shown: human IgG1 Fc fragment, its N-terminus linked to the C-terminus of the VHH) EVQLVESGGGLVQPGGSLRLSCAASRTDRNINTMHWYRQAPGKGREWVGTIFIDLNTIVTDSVKGRFTISRDNAKNTLYLQMNTLRAEDTAVYYCAADVSGYGRAWGQGTTVTVSS
